Consider one substance from publication PMC5818345.

Chains of the proteins cited; added tags and fusions are not shown.
UniProt Q62432: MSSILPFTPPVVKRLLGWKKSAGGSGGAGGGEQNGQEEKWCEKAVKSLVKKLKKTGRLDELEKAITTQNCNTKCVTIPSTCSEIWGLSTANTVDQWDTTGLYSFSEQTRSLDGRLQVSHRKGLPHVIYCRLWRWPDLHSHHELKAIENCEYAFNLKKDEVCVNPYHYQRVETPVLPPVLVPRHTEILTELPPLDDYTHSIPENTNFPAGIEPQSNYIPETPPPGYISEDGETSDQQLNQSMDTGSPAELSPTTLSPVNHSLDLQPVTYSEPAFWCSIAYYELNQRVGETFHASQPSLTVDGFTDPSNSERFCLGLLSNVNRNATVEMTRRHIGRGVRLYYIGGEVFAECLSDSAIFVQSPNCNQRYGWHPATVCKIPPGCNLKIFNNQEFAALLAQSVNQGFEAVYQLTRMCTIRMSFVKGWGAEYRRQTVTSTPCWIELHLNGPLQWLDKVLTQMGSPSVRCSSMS

The target in the test is T1, regulator of G-protein Signaling 5 (UniProt O08850).
T1 sequence: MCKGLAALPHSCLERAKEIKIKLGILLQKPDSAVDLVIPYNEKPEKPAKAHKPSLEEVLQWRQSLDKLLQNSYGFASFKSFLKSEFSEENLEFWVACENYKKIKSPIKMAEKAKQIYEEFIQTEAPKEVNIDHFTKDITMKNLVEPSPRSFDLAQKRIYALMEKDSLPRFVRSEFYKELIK
As to the kind of experiment: co-IP; co-immunoprecipitation followed by western-blotting, pericytes; with TGFβ or exposure to tumor microenvironment (TME).

Results are given in words; binding and its absence hold for the method and conditions named. Binding seen in cells or lysates may run through a third protein. Some results given as binding are weak or reduced against the parent protein; the word gives no strength.

For the substance Smad2 (from UniProt Q62432 1-467), the binding result is on record as “binds”.
